For assay [1], the target named is T1, HA-tagged wild-type S. pombe Rpc2p (second largest RNA polymerase III subunit) (S. pombe) (UniProt Q10233).
T1 sequence: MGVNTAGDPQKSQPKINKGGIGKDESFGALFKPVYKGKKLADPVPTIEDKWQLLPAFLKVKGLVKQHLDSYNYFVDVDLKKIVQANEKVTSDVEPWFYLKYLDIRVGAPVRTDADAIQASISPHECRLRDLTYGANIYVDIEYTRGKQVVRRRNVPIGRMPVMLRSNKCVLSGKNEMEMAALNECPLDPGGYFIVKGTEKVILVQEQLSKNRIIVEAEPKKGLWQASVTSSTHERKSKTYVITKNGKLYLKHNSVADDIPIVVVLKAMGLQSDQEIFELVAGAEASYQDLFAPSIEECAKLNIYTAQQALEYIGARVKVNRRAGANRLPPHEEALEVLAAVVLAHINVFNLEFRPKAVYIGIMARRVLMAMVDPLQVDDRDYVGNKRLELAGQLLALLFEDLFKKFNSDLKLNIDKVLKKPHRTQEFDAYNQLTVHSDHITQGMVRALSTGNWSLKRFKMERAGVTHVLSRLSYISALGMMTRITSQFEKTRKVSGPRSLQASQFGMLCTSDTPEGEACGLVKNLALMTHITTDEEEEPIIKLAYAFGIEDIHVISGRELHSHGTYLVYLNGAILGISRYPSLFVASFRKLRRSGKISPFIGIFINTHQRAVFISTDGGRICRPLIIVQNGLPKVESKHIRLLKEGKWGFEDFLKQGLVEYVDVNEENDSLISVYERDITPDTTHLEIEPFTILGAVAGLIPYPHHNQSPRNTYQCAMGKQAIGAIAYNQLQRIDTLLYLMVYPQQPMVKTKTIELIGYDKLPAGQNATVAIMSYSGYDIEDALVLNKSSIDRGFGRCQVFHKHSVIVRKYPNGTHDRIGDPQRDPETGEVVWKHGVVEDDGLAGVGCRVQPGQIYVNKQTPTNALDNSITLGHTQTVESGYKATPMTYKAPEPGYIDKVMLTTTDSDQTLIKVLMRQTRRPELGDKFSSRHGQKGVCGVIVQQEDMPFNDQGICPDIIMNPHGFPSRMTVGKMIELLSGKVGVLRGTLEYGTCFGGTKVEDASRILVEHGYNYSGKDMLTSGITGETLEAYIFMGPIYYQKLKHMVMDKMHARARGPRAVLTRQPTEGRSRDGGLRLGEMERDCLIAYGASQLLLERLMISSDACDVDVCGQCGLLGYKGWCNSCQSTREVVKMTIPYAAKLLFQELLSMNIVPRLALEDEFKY
As to the kind of experiment: co-IP; sequential affinity purification of Pol III from S. pombe extracts: FLAG-His6-Rpc53p as in ref. 50, then the eluate from the Ni-NTA column on anti-HA beads (HA-Rpc2p or HA-Rpc2-Δp) for 4 h at 4 °C; elution by boiling in SDS loading buffer; immunoblot of subunits. In general terms: Immunoblotting shows a protein as a band on a membrane.

For assay [2], the target named is T2, His6-FLAG-tagged S. pombe Rpc53p (RNA polymerase III subunit) (S. pombe) (UniProt O74857).
T2 sequence: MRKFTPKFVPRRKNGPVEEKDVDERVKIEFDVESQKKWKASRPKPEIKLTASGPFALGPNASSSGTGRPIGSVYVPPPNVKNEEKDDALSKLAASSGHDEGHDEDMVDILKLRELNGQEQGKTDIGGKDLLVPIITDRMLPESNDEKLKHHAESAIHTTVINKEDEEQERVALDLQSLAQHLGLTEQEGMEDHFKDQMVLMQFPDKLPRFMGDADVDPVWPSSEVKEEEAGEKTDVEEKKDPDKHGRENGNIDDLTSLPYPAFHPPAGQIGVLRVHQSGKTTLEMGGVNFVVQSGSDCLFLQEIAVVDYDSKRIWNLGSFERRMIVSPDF
The description is as above.

These are yes or no findings as the source states them, for the method shown. In cells and extracts the contact can be indirect. Some results given as binding are weak or reduced against the parent protein; the word gives no strength. Tags and fused reporters may be left off the sequences shown.

B1: S. pombe Rpc11p (RNA polymerase III subunit) (protein, UniProt O13896 1-109)
chain: MQFCPTCGNHLIVAVDEEGRNAFDCRTCPYHFPISTFLYSRHEFAQKEVDDVLGGEEAFESNQQTEVTCENTKCDNNRAYFFQLQIRSADEPMSTFYRCTKCKFQWREN
As for B1, the binding entry in assay [1] and in assay [2] was “binds” each time.

B2: His6-FLAG-tagged S. pombe Rpc53p (RNA polymerase III subunit) (protein, UniProt O74857 1-330)
chain: MRKFTPKFVPRRKNGPVEEKDVDERVKIEFDVESQKKWKASRPKPEIKLTASGPFALGPNASSSGTGRPIGSVYVPPPNVKNEEKDDALSKLAASSGHDEGHDEDMVDILKLRELNGQEQGKTDIGGKDLLVPIITDRMLPESNDEKLKHHAESAIHTTVINKEDEEQERVALDLQSLAQHLGLTEQEGMEDHFKDQMVLMQFPDKLPRFMGDADVDPVWPSSEVKEEEAGEKTDVEEKKDPDKHGRENGNIDDLTSLPYPAFHPPAGQIGVLRVHQSGKTTLEMGGVNFVVQSGSDCLFLQEIAVVDYDSKRIWNLGSFERRMIVSPDF
On to B2, for which, in assay [1], the binding entry is on record as “binds”.

The record behind these values is publication PMC2229849.
